According to PubChem BioAssay AID226 (DTP/NCI, 2004):
The list does not hold the whole screen: it gathers tests that were run many times, whatever their T/C, doses with no T/C, and many T/C values between a quarter and a half above the control. Further doses and runs are listed elsewhere. T/C: endpoint of the treated group in % of that of the vehicle group. Some entries give survivors of the animals treated and no T/C: the source holds a T/C of zero for them, seemingly a mark for toxic or unscored doses. Some doses without a T/C left all or most animals alive at the check, yet need not have been tolerated: the source hardly ever lists a survival T/C far under the control, and the zero likely stands for such cases as well. Survivors were counted at the toxicity check, usually on the fifth day, unless a day is given; later deaths do not show. Schedules are NCI's codes, taken here to give the interval after Q, in days (D) or hours (H), and the number of doses after X. Some entries hold several experiments; the results are listed from low to high. For survival time, the PubChem record calls one and a half times the control and up active, and a quarter to a half above the control has no call in these data; cut-offs in other NCI protocols can differ. Some T/C values carry the count of animals alive at the toxicity check (mostly the fifth day); where none is given, no animal had died by that day. Additions like (4×) stand for listed records that agree.

Tested on: B6C3F1 mice, intracerebral ependymoblastoma, median survival T/C
Experiment: NCI In Vivo Anticancer Drug Screen. Data for tumor model Ependymoblastoma (intracerebral) in B6C3F1 mice
Conditions: T/C endpoint: median survival time, higher T/C = longer survival
Procedure: The antitumor activity of compounds was measured in mice bearing transplantable tumors. Survival or tumor size were measured and the results are expressed as the measurement made in the treated group (T) divided by the measurement made in the vehicle treated control group (C). The tumor model used in this assay is Ependymoblastoma (intracerebral) in B6C3F1 mice

[1] = dose: 50.0 mg/kg/injection, schedule: Q01DX009 (ip), vehicle: saline
[2] = dose: 512.0 mg/kg/injection, schedule: Q01DX005 (ip), vehicle: Klucel (hydroxypropylcellulose) (HPC)
[3] = dose: 800.0 mg/kg/injection, schedule: Q01DX001 (ip), vehicle: Klucel (hydroxypropylcellulose) (HPC)
[4] = dose: 128.0 mg/kg/injection, schedule: Q01DX001 (ip), vehicle: Klucel (hydroxypropylcellulose) (HPC)
[5] = dose: 256.0 mg/kg/injection, schedule: Q01DX001 (ip), vehicle: Klucel (hydroxypropylcellulose) (HPC)
[6] = dose: 512.0 mg/kg/injection, schedule: Q01DX001 (ip), vehicle: Klucel (hydroxypropylcellulose) (HPC)
[7] = dose: 1024.0 mg/kg/injection, schedule: Q01DX001 (ip), vehicle: Klucel (hydroxypropylcellulose) (HPC)
[8] = dose: 400.0 mg/kg/injection, schedule: Q01DX005 (ip), vehicle: saline with Tween-80

O=c1n(CC2CO2)c(=O)n(CC2CO2)c(=O)n1CC1CO1 (stereo not given)
T/C (dose: 30.0 mg/kg/injection, schedule: Q01DX009 (ip), vehicle: saline): 134 % of control
T/C (dose: 40.0 mg/kg/injection, schedule: Q01DX004 (ip), vehicle: saline): 125 % of control
T/C (dose: 40.0 mg/kg/injection, schedule: Q01DX009 (ip), vehicle: saline): 128 % of control
survivor count (dose: 50.0 mg/kg/injection, schedule: Q01DX004 (ip), vehicle: saline): 8 of 8
T/C (dose: 50.0 mg/kg/injection, schedule: Q01DX005 (ip), vehicle: saline with Tween-80): 127 % of control
T/C [1]: 129 % of control [8 of 10 alive]
survivor count [1]: 8 of 8
survivor count (dose: 100.0 mg/kg/injection, schedule: Q01DX005 (ip), vehicle: saline with Tween-80): 7 of 10
T/C (dose: 100.0 mg/kg/injection, schedule: Q01DX009 (ip), vehicle: saline): 146 and 149 % of control
survivor count (dose: 200.0 mg/kg/injection, schedule: Q01DX005 (ip), vehicle: saline with Tween-80): 0 of 10

CN(C)N=Nc1ccc(C(N)=O)cc1
T/C (dose: 64.0 mg/kg/injection, schedule: Q01DX005 (ip), vehicle: saline with Tween-80): 145 % of control
survivor count (dose: 128.0 mg/kg/injection, schedule: Q01DX005 (ip), vehicle: saline with Tween-80): 9 of 10
survivor count (dose: 256.0 mg/kg/injection, schedule: Q01DX005 (ip), vehicle: saline with Tween-80): 0 of 10

OCC1OC(n2cnc3c(SCc4ccccc4)ncnc32)C(O)C1O (stereo not given)
survivor count (dose: 300.0 mg/kg/injection, schedule: Q01DX005 (ip), vehicle: saline with Tween-80): 7 of 10

CCC(=O)O[C@H]1CC[C@H]2[C@@H]3CC[C@H]4CC(=O)[C@H](C)C[C@]4(C)[C@H]3CC[C@]12C
survivor count [2]: 4 of 6

O=NN(CCCl)C(=O)NC1CCCN(Cc2ccccc2)C1 (stereo not given)
T/C (dose: 12.5 mg/kg/injection, schedule: Q01DX001 (ip), vehicle: distilled water + Tween-80): 126 % of control
T/C (dose: 25.0 mg/kg/injection, schedule: Q01DX001 (ip), vehicle: distilled water + Tween-80): 129 % of control
survivor count (dose: 200.0 mg/kg/injection, schedule: Q01DX001 (ip), vehicle: distilled water + Tween-80): 5 of 10

COc1cc(C[C@H]2c3cc(OC)c(OC)cc3CCN2C)c(Oc2cc3c(cc2OC)-c2c(OC)c(OC)cc4c2[C@H](C3)N(C)CC4)cc1OC
T/C (dose: 100.0 mg/kg/injection, schedule: Q01DX001 (ip), vehicle: Klucel (hydroxypropylcellulose) (HPC)): 94, 100, 111 [survivors not given], 113 % of control [survivors not given]
survivor count (dose: 100.0 mg/kg/injection, schedule: Q01DX005 (ip), vehicle: Klucel (hydroxypropylcellulose) (HPC)): 0 of 10 and 4 of 10
T/C (dose: 200.0 mg/kg/injection, schedule: Q01DX001 (ip), vehicle: Klucel (hydroxypropylcellulose) (HPC)): 103, 103 [survivors not given], 108, 112 % of control [survivors not given]
survivor count (dose: 200.0 mg/kg/injection, schedule: Q01DX005 (ip), vehicle: Klucel (hydroxypropylcellulose) (HPC)): 0 of 10 and 1 of 10
T/C (dose: 400.0 mg/kg/injection, schedule: Q01DX001 (ip), vehicle: Klucel (hydroxypropylcellulose) (HPC)): 94 [survivors not given], 104, 105, 107 % of control [survivors not given]
survivor count (dose: 400.0 mg/kg/injection, schedule: Q01DX005 (ip), vehicle: Klucel (hydroxypropylcellulose) (HPC)): 0 of 10
T/C [3]: 100 [9 of 10 alive on day 9], 104 [survivors not given], 119 % of control [survivors not given]
survivor count [3]: 7 of 10

COc1cc2c(c3c1c(=O)c1ccccc1n3C)C=CC(C)(C)O2
T/C [4]: 103 [survivors not given], 105 [survivors not given], 106 % of control [survivors not given]
survivor count [4]: 0 of 10
T/C (dose: 128.0 mg/kg/injection, schedule: Q01DX005 (ip), vehicle: Klucel (hydroxypropylcellulose) (HPC)): 127 % of control
T/C [5]: 94 [survivors not given], 101 [survivors not given], 106 % of control [survivors not given]
survivor count [5]: 0 of 10
survivor count (dose: 256.0 mg/kg/injection, schedule: Q01DX005 (ip), vehicle: Klucel (hydroxypropylcellulose) (HPC)): 6 of 10
T/C [6]: 92 [survivors not given] and 105 % of control [survivors not given] (2×)
survivor count [6]: 1 of 10
survivor count [2]: 0 of 10
T/C (dose: 512.0 mg/kg/injection, schedule: Q01DX005 (ip), vehicle: suspension in saline): 126 % of control
T/C [7]: 100 [survivors not given] and 115 % of control [survivors not given]
survivor count [7]: 0 of 10
survivor count (dose: 1024.0 mg/kg/injection, schedule: Q01DX005 (ip), vehicle: suspension in saline): 2 of 10

O=NN(CCCl)C(=O)NC1CCN(Cc2ccccc2)CC1
T/C (dose: 25.0 mg/kg/injection, schedule: Q01DX001 (ip), vehicle: water): 136 % of control
survivor count (dose: 200.0 mg/kg/injection, schedule: Q01DX001 (ip), vehicle: water): 10 of 10

OC(CBr)C(O)C(O)C(O)CBr (stereo not given)
T/C (dose: 50.0 mg/kg/injection, schedule: Q01DX005 (ip), vehicle: saline with Tween-80, evaluated on day 40): 106 % of control
T/C (dose: 50.0 mg/kg/injection, schedule: Q01DX005 (ip), vehicle: saline with Tween-80, evaluated on day 60): 109 (2×), 112 [8 of 10 alive], 114, 115 % of control
T/C (dose: 100.0 mg/kg/injection, schedule: Q01DX005 (ip), vehicle: saline with Tween-80, evaluated on day 40): 120 % of control
T/C (dose: 100.0 mg/kg/injection, schedule: Q01DX005 (ip), vehicle: saline with Tween-80, evaluated on day 60): 96 [7 of 10 alive], 101, 112 (2×), 119, 133 % of control
T/C (dose: 100.0 mg/kg/injection, schedule: Q01DX005 (ip), vehicle: saline, evaluated on day 45): 128 % of control
T/C (dose: 100.0 mg/kg/injection, schedule: Q01DX005 (ip), vehicle: saline, evaluated on day 60): 131 and 135 % of control
T/C (dose: 200.0 mg/kg/injection, schedule: Q01DX005 (ip), vehicle: saline with Tween-80, evaluated on day 40): 104 % of control
T/C (dose: 200.0 mg/kg/injection, schedule: Q01DX005 (ip), vehicle: saline with Tween-80, evaluated on day 60): 86 [4 of 10 alive], 108 [9 of 10 alive], 114, 121, 128, 133 % of control
T/C [8]: 114, 119 [7 of 10 alive], 129, 141 % of control
survivor count [8]: 9 of 10 and 10 of 10
survivor count (dose: 400.0 mg/kg/injection, schedule: Q01DX005 (ip), vehicle: saline): 10 of 10

COc1cc([C@@H]2c3cc4c(cc3[C@@H](OC3OC5CO[C@@H](c6cccs6)OC5C(O)C3O)[C@H]3COC(=O)[C@H]23)OCO4)cc(OC)c1O (stereo not given in full)
T/C (dose: 1.0 mg/kg/injection, schedule: Q01DX005 (ip), vehicle: saline): 135 % of control
T/C (dose: 4.0 mg/kg/injection, schedule: Q01DX001 (ip), vehicle: saline): 126 % of control
survivor count (dose: 4.0 mg/kg/injection, schedule: Q01DX005 (ip), vehicle: saline): 10 of 10
survivor count (dose: 8.0 mg/kg/injection, schedule: Q01DX005 (ip), vehicle: saline): 9 of 10
T/C (dose: 16.0 mg/kg/injection, schedule: Q01DX001 (oral), vehicle: saline): 127 % of control
survivor count (dose: 16.0 mg/kg/injection, schedule: Q01DX005 (oral), vehicle: saline): 10 of 10
survivor count (dose: 32.0 mg/kg/injection, schedule: Q01DX005 (oral), vehicle: saline): 10 of 10
survivor count (dose: 128.0 mg/kg/injection, schedule: Q01DX001 (oral), vehicle: saline): 0 of 10
